Data as given in PubChem BioAssay AID1259254 (NCATS, 2017).

Test: 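Gene knock-downs that lead to re-replication, shown by excess G2 DNA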 (primary screen)
Cell system: human HCT116 colorectal cancer cells
Reagents: single siRNA against human genes
Timing: 3 days
Detection: 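Imaged Hoechst DNA stain sorts each cell into a cycle phase by DNA amount; per plate, G2 fraction set to 0% for non-targeting and 100% for GMNN siRNA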
Scale: G2 robust z-score and G2 cells, % of GMNN control: higher = more G2 cells, more excess DNA replication; raw share of cells in G2: higher = larger share of cells with G2 DNA content
Rule for the call: 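An siRNA counts as active if its G2 robust z-score lies at least 5 MADs above the screen median; here such calls match roughly 38% of GMNN control or more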
Shown is a random part of about 59,000 reagents tested. About 1,550 of them (2.6%) were called active. 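G2 share is only a proxy for re-replication; each gene was hit by three separate siRNAs, and active genes were retested.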 Raw values are not corrected between plates. Reagents against one gene are numbered here. Not stated in the record: the amount of reagent.

no.	target	reagent	G2 robust z-score	G2 cells, % of GMNN control	raw share of cells in G2 (%)	outcome
1	PLK3 (GeneID 1263)	1	-1	-4.09	4.03	inactive
2	PLK3 (GeneID 1263)	2	-1.2	-5.51	3.79	inactive
3	PLK3 (GeneID 1263)	3	0.261	4.8	5.72	inactive
4	BCAS3 (GeneID 54828)	1	4.89	37.4	17	inactive
5	BCAS3 (GeneID 54828)	2	-0.196	1.59	4.94	inactive
6	BCAS3 (GeneID 54828)	3	-0.645	-1.57	2.67	inactive
7	SCAMP4 (GeneID 113178)	1	-0.707	-2.01	3.29	inactive
8	SCAMP4 (GeneID 113178)	2	0.319	5.21	4.88	inactive
9	SCAMP4 (GeneID 113178)	3	-1.09	-4.68	0.451	inactive
10	POLR2J4 (GeneID 84820)	1	1.58	14.1	7.64	inactive
11	POLR2J4 (GeneID 84820)	2	0.854	8.98	5.13	inactive
12	POLR2J4 (GeneID 84820)	3	3.12	25	12.4	inactive
13	GEM (GeneID 2669)	1	1.16	11.1	9.28	inactive
14	GEM (GeneID 2669)	2	5.41	41	20.9	active
15	GEM (GeneID 2669)	3	0.0257	3.15	4.78	inactive
16	SCAMP3 (GeneID 10067)	1	1.71	15	12.1	inactive
17	SCAMP3 (GeneID 10067)	2	3.23	25.7	14.7	inactive
18	SCAMP3 (GeneID 10067)	3	1.33	12.4	7.9	inactive
19	DDAH1 (GeneID 23576)	1	1.28	12	11.2	inactive
20	DDAH1 (GeneID 23576)	2	-0.763	-2.4	3.35	inactive
21	DDAH1 (GeneID 23576)	3	0.58	7.05	6.28	inactive
22	SNRPD2P1 (GeneID 119358)	1	0.261	4.81	6.02	inactive
23	SNRPD2P1 (GeneID 119358)	2	4.86	37.2	14.4	inactive
24	SNRPD2P1 (GeneID 119358)	3	-0.932	-3.59	0.77	inactive
25	RAB3GAP1 (GeneID 22930)	1	2.91	23.4	11.9	inactive
26	RAB3GAP1 (GeneID 22930)	2	-0.526	-0.733	4.7	inactive
27	RAB3GAP1 (GeneID 22930)	3	0.00317	2.99	5.37	inactive
28	ZBED3 (GeneID 84327)	1	-0.532	-0.775	2.17	inactive
29	ZBED3 (GeneID 84327)	2	-1.08	-4.63	2.57	inactive
30	ZBED3 (GeneID 84327)	3	1.4	12.8	7.26	inactive
31	SBNO2 (GeneID 22904)	1	-0.62	-1.39	4.44	inactive
32	SBNO2 (GeneID 22904)	2	1.27	11.9	9.06	inactive
33	SBNO2 (GeneID 22904)	3	-0.357	0.456	3.34	inactive
34	INPP5K (GeneID 51763)	1	3.49	27.5	11.8	inactive
35	INPP5K (GeneID 51763)	2	1.56	14	9.34	inactive
36	INPP5K (GeneID 51763)	3	-1.03	-4.3	3.01	inactive
37	FBP1 (GeneID 2203)	1	4.15	32.2	15.3	inactive
38	FBP1 (GeneID 2203)	2	1.38	12.7	8.13	inactive
39	FBP1 (GeneID 2203)	3	-0.868	-3.14	2.55	inactive
40	AP1S2P2 (GeneID 653653)	1	-0.534	-0.793	2.98	inactive
41	AP1S2P2 (GeneID 653653)	2	-0.581	-1.12	2.76	inactive
42	AP1S2P2 (GeneID 653653)	3	0.193	4.32	4.06	inactive
43	SCML2 (GeneID 10389)	1	-0.7	-1.96	4.84	inactive
44	SCML2 (GeneID 10389)	2	3.1	24.8	11.9	inactive
45	SCML2 (GeneID 10389)	3	3.43	27.1	17.2	inactive
46	ZNF423 (GeneID 23090)	1	-1.02	-4.24	2.12	inactive
47	ZNF423 (GeneID 23090)	2	-0.382	0.283	6.11	inactive
48	ZNF423 (GeneID 23090)	3	0.0416	3.26	4.7	inactive
49	KDM4D (GeneID 55693)	1	-0.853	-3.03	3.36	inactive
50	KDM4D (GeneID 55693)	2	-0.248	1.22	4.65	inactive
51	KDM4D (GeneID 55693)	3	-0.0924	2.32	3.88	inactive
52	FOLR3 (GeneID 2352)	1	1.58	14.1	10.4	inactive
53	FOLR3 (GeneID 2352)	2	0.789	8.52	8.5	inactive
54	FOLR3 (GeneID 2352)	3	-0.38	0.291	3.76	inactive
55	LOC731075 (GeneID 731075)	1	-0.439	-0.124	3.45	inactive
56	LOC731075 (GeneID 731075)	2	-0.216	1.45	4.04	inactive
57	LOC731075 (GeneID 731075)	3	0.508	6.55	6.23	inactive
58	CH25H (GeneID 9023)	1	0.321	5.23	6.91	inactive
59	CH25H (GeneID 9023)	2	0.13	3.88	6.63	inactive
60	CH25H (GeneID 9023)	3	1.73	15.1	10.1	inactive
61	AJUBA (GeneID 84962)	1	-0.11	2.2	5.31	inactive
62	AJUBA (GeneID 84962)	2	-0.112	2.18	6.68	inactive
63	AJUBA (GeneID 84962)	3	0.163	4.12	6.73	inactive
64	FRAS1 (GeneID 80144)	1	2.51	20.6	13	inactive
65	FRAS1 (GeneID 80144)	2	-0.82	-2.8	3.08	inactive
66	FRAS1 (GeneID 80144)	3	-0.353	0.483	2.51	inactive
67	SAMD4A-AS1 (GeneID 729451)	1	3.8	29.7	15.8	inactive
68	SAMD4A-AS1 (GeneID 729451)	2	1.24	11.7	7.17	inactive
69	SAMD4A-AS1 (GeneID 729451)	3	1.02	10.2	6.88	inactive

No new results follow: 8 of the entries above.
no.	target	reagent	G2 robust z-score	G2 cells, % of GMNN control	raw share of cells in G2 (%)	outcome
8	SCAMP4 (GeneID 113178)	2	0.319	5.21	4.88	inactive
9	SCAMP4 (GeneID 113178)	3	-1.09	-4.68	0.451	inactive
10	POLR2J4 (GeneID 84820)	1	1.58	14.1	7.64	inactive
11	POLR2J4 (GeneID 84820)	2	0.854	8.98	5.13	inactive
12	POLR2J4 (GeneID 84820)	3	3.12	25	12.4	inactive
13	GEM (GeneID 2669)	1	1.16	11.1	9.28	inactive
14	GEM (GeneID 2669)	2	5.41	41	20.9	active
15	GEM (GeneID 2669)	3	0.0257	3.15	4.78	inactive
